From PMC4808009
No constants are given. Whether binding was seen depends on the method and setting. Binding seen in cells or lysates may run through a third protein. Some binding calls cover weakened binding; strength is not graded here.

Sequences of proteins named here, by UniProt entry; tags and fusion partners are left off. Residues count along the entry.
UniProt P21860, residues 20-1342: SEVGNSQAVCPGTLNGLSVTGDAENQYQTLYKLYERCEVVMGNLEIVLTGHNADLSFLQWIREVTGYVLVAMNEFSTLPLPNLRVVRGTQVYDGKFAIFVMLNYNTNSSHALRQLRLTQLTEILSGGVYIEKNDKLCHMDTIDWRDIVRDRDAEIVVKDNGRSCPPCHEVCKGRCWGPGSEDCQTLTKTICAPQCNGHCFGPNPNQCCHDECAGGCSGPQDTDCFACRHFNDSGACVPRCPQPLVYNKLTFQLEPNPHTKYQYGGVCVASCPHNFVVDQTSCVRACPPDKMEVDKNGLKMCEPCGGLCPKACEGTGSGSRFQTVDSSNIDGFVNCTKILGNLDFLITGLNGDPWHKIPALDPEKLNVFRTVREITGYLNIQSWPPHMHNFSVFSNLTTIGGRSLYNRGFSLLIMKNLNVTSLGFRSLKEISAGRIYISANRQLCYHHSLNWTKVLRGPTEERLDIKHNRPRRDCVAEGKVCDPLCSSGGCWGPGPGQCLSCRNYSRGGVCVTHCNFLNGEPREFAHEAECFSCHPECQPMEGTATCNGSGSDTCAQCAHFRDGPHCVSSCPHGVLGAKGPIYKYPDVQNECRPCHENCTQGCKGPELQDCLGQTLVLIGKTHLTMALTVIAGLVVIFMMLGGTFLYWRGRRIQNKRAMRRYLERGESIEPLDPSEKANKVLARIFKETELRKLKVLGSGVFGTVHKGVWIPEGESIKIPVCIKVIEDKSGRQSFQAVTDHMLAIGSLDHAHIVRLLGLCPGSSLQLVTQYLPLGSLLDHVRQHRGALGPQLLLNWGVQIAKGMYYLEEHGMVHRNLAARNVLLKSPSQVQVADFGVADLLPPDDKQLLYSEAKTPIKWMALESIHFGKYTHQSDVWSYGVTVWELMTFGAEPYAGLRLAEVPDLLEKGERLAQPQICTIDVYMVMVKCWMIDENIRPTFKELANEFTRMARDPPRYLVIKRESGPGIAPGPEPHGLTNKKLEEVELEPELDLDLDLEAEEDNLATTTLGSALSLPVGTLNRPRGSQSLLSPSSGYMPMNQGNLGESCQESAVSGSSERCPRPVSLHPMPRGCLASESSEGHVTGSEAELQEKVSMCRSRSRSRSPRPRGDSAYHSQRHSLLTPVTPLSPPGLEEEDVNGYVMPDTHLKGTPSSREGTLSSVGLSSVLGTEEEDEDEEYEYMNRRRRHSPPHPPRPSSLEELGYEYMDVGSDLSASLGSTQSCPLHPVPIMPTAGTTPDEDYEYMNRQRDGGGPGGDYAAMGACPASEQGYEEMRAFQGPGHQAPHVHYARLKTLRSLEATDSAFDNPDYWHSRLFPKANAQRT
UniProt P07949, residues 29-1114: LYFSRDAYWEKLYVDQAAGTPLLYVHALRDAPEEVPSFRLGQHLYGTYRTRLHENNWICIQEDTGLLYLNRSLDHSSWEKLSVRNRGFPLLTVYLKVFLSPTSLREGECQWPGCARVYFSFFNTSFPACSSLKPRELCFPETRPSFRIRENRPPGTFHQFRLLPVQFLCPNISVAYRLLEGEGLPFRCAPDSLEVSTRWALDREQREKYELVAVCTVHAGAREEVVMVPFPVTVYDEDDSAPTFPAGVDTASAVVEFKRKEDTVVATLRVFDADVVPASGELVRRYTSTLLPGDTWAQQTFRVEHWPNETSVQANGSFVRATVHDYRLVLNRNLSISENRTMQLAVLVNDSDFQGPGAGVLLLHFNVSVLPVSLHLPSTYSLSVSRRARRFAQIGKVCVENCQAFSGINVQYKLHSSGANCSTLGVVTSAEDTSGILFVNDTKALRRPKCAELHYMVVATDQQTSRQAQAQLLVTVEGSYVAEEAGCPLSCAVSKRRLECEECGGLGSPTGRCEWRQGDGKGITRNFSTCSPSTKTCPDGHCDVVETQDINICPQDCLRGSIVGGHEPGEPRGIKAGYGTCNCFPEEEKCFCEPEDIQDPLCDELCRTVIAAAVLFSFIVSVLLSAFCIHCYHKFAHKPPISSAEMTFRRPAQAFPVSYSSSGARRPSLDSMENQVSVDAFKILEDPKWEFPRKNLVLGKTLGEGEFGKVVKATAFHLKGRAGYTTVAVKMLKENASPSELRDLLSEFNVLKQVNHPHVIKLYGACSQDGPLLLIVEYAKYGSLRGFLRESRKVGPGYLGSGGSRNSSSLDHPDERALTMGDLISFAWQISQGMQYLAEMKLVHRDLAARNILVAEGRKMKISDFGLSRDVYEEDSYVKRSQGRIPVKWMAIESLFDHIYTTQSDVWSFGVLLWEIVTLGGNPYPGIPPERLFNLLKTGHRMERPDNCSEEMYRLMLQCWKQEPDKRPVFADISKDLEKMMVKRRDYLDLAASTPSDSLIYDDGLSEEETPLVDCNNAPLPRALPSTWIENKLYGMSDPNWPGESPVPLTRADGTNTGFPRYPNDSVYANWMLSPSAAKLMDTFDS

What was measured:
[1] = biological target: ERBB3 receptor tyrosine kinase (human (endogenous in MLS cell lines)) (UniProt P21860); assay: proximity ligation; DuoLink II kit in MLS cells; rabbit and goat specific probes with ERBB3 antibody (G-4) and RET goat antibody (C-19); confocal microscopy; signals in cytoplasm and nuclei
ERBB3-EGFP = ERBB3-EGFP (UniProt P21860); assay: co-IP; GFP-TRAP beads on lysate of ERBB3-EGFP transfected MLS cell line 1765-92, 24 hours after transfection; lysis buffer 25 mM Tris pH 7.5, 150 mM KCl, 1.5 mM MgCl, 1 mM DTT, 0.5% NP40, diluted to 0.2% NP40; RET detected by Western blot

binding [1]: binds | binding (ERBB3-EGFP): binds
Substance: RET receptor tyrosine kinase (from UniProt P07949 29-1114)
